{"sequences": {"note": "Amino acid sequences for entries named in this document (tags omitted).", "UniProt P35367, whole entry": "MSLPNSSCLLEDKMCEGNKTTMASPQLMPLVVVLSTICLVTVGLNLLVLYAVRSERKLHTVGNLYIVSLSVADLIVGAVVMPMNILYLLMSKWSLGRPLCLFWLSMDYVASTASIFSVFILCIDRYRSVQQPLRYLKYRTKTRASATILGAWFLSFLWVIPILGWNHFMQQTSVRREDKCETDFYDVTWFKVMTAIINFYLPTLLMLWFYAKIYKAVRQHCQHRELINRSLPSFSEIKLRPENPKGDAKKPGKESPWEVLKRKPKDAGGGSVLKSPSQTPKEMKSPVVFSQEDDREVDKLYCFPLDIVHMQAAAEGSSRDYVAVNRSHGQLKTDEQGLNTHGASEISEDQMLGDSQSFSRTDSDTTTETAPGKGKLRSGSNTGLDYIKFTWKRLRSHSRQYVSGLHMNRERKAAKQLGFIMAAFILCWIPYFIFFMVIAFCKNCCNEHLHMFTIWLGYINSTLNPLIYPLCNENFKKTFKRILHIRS"}, "source": "patent US9669025B2", "about": "(INFLAMMATORY RESPONSE RESEARCH, INC., priority 2013, dated 2017)", "origin": "cited, not measured here", "key": {"[1]": {"details": "in vivo; cited from earlier work"}, "H1 receptor": {"target": "H1 receptor (Homo sapiens, UniProt P35367)", "details": "cited from earlier work"}}}
{"molecule": "O=C(O)COCCN1CCN([C@H](c2ccccc2)c2ccc(Cl)cc2)CC1", "note": "[levocetirizine]", "values": [{"measurement": "time to peak plasma level", "setting": "[1]", "value": 0.9, "unit": "h"}, {"measurement": "Receptor affinity in an acidic ph (increased)", "setting": "H1 receptor", "value": "increased 5x"}]}
